Test results: PubChem BioAssay AID1671190 (National Center for Advancing Translational Sciences (NCATS), 2021)
About 6,100 (1.1%) of roughly 580,000 compounds were called active. Inconclusive results, whose numbers are uncertain, are shown with a selection of clear calls. Calls follow the shape of the dose curve; as a rule, active = well fitted inhibition curve with a large enough effect; inconclusive = small, poorly fitted or top-dose-only effect, or another doubt; inactive = no such curve, though single readings can be large or run the other way. Potencies of inconclusive entries are doubtful fits and often do not repeat.

Amino acid sequences for entries named in this document (tags omitted). A change or cut given only in a name is not applied to a line headed by its entry.
UniProt P18054: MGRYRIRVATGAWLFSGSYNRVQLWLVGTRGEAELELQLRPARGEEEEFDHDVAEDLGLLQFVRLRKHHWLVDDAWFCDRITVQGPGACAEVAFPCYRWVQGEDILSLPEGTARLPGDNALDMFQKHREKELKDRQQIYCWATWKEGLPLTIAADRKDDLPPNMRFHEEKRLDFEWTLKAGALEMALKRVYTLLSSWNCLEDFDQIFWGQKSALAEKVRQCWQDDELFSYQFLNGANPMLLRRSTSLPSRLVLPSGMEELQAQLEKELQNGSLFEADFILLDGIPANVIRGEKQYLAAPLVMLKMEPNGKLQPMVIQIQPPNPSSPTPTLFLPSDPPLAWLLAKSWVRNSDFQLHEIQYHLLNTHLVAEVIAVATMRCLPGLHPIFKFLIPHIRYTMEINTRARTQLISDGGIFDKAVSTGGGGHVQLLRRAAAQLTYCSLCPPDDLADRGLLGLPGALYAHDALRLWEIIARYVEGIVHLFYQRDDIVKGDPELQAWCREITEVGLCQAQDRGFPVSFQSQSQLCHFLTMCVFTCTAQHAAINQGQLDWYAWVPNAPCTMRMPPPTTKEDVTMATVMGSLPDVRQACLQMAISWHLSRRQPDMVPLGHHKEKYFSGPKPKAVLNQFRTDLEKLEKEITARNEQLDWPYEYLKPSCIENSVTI

biological target: Polyunsaturated fatty acid lipoxygenase ALOX12 (Homo sapiens) (UniProt P18054); assay: Primary qHTS assay for inhibitors of human arachidonate 12S-lipoxygenase (ALOX12): Round 2; conditions: purified 12hLO, xylenol orange hydroperoxide absorbance; series mostly up to 108 µM
How it was run: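 Hydroperoxide product was detected by ferrous iron/xylenol orange as the 573 to 405 nm absorbance ratio. Arachidonic acid at 40 uM (final) was turned over for 30 min at room temperature by 150 nM human 12hLO, pH 7.0 Hepes buffer, after 15 min compound preincubation.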
Potency is read from the fitted curve at half-maximal effect.

SMILES | Potency
COC(=O)[C@H](CC1CCCCC1)NC(=O)[C@@H]1CN(C(=O)c2ccc(N(C)C)cc2)CCN1C(C)=O | inconclusive: 100 µM [inhibitor, partial curve, poor fit]
COc1ccc(CCN(Cc2cc3cc(C)cc(C)c3nc2Cl)C(=O)C2CC2)cc1 | inactive
O=c1[nH]c(=S)c2[nH]c(=S)n(-c3ccccc3)c2[nH]1 | inconclusive: 39.8 µM [inhibitor, partial curve, poor fit]
COCc1noc([C@@H]2CN(C3CNC3)C[C@H]2C(N)=O)n1 | inconclusive: 31.6 µM [inhibitor, single point]
Cc1cc(C)nc(NNS(=O)(=O)c2ccc(Cl)cc2)n1 | inconclusive: 15.8 µM [inhibitor, full curve, poor fit]
O=C(c1cccc(Cl)c1)N1CCc2nc(C3CC3)nc(-c3ccc(Cl)cc3)c2C1 | inactive
Cc1cc(SCC(=O)OCC(=O)N2CCN(C(=O)c3ccco3)CC2)c(C)cc1Br | inconclusive: 89.1 µM [inhibitor, single point]
CCOc1ccc(NC(=O)c2ccc(NC(=O)c3ccc(CN4CCOCC4)cc3)cc2)cc1 | inactive
CCCCC(=O)NC(Nc1cc(C)ccn1)(C(=O)OCC)C(F)(F)F (stereo unspecified) | inconclusive: 28.2 µM [inhibitor, partial curve, poor fit]
O=C(NNc1cc(C(F)(F)F)ccc1Cl)c1ccc(=O)[nH]c1 | inconclusive: 44.7 µM [inhibitor, partial curve, poor fit]
CC(=O)C1=C(O)C(=O)N(Cc2ccccc2)C1c1ccccc1F (stereo unspecified) | inactive
O=C1/C(=C/c2ccc(F)cc2)SC(=S)N1NS(=O)(=O)c1ccccc1 | inconclusive: 7.08 µM [inhibitor, partial curve, poor fit]
O=C(NC1CC1)c1nc(-c2ccc(F)cc2)c2ccccn12 | inconclusive: 25.1 µM [inhibitor, full curve]
c1coc(-c2nc(C3CCOC3)nn2C2Cc3ccccc3C2)c1 (stereo unspecified) | inactive
O=C(c1cccs1)n1nc(-c2ccc(Cl)cc2)nc1NCc1ccco1 | inconclusive: 44.7 µM [inhibitor, partial curve, poor fit]
COc1ccc(S(=O)(=O)N2CCN(C(=O)c3cccnc3)CC2)cc1OC | inconclusive: 112 µM [inhibitor, single point]
COc1cc2c(cc1OC)CN(C(=O)/C=C/c1cccs1)CC2 | inconclusive: 126 µM [inhibitor, single point]
O=C(c1ccc(Cl)cc1)c1cnc(-c2ccccc2)s1 | inactive
CCC(c1nnnn1Cc1ccco1)N(CCc1ccccc1)Cc1cc2cccc(C)c2[nH]c1=O (stereo unspecified) | inconclusive: 8.91 µM [inhibitor, partial curve, poor fit]
O=C(c1ccc(S(=O)(=O)N2CCC(c3nc4ccccc4s3)CC2)cc1)N1CCOCC1 | inactive
CN(Cc1ccccc1)Cc1c(F)cccc1F | inconclusive: 0.708 µM [inhibitor, full curve, poor fit]

SMILES | Potency
Cc1cc2ccccc2n1CC(=O)Nc1ccccc1 | inconclusive: 31.6 µM [inhibitor, partial curve, poor fit]
COc1cccc(C(C)(O)c2nc(-c3cccc(C(C)C)c3)cs2)c1 (stereo unspecified) | inconclusive: 25.1 µM [inhibitor, partial curve]
CCCOC(=O)c1ccc(Oc2cn[nH]c2-c2ccc(O)cc2O)cc1 | inconclusive: 70.8 µM [inhibitor, partial curve, poor fit]
O=C(NC1CC1)c1ccc2c(c1)C1C3CCC(C3)C1C(c1ccccc1)N2 (stereo unspecified) | inactive
O=S(=O)(Nc1ccc(O)c(CN2CCCCC2)c1)c1ccccc1 | inactive
COc1cccc(Nc2nc(NCC3CCCO3)c3ccccc3n2)c1 (stereo unspecified) | inconclusive: 50.1 µM [inhibitor, partial curve]
CCN1C(=O)[C@@H]2[C@@H](c3ccc(-c4ccc5c(c4)OCO5)cc3)N3CCCC[C@@]3(C(=O)OC)[C@@H]2C1=O | inactive
CNc1cncc(-c2ccc(O)cc2C)n1 | inconclusive: 28.2 µM [inhibitor, partial curve]
Cc1ccc(OCC(COCc2ccccc2)NC(C)C)cc1 (stereo unspecified) | inconclusive: 6.31 µM [inhibitor, full curve, poor fit]
COc1ccccc1NC(=O)CN(C)S(=O)(=O)c1cccc2cccnc12 | inactive
Cc1cccc(CSc2nnc(-c3cnccn3)n2C)c1 | inconclusive: 15.8 µM [inhibitor, partial curve, poor fit]
Cc1cccc(OCC2(CNC(=O)C3CC3)C[C@@H](O)[C@@H](O)C2)n1 (stereo partly specified) | inconclusive: 10 µM [inhibitor, full curve]
CCOC(=O)C1CCN(Cc2cc(=O)oc3cc(C)c(O)cc23)CC1 | inconclusive: 79.4 µM [inhibitor, single point]
O=C(Cc1ccc2c(c1)OCO2)N1CCNc2cnc(Nc3cccc(C(F)(F)F)c3)nc2C1 | inconclusive: 25.1 µM [inhibitor, partial curve]
Oc1cccc(/C=N/Nc2ccc(Cl)nn2)c1 | inconclusive: 141 µM [inhibitor, single point]
Cc1ccccc1-n1c(O)c(/C=C/C=Nc2ccccc2)c(=O)[nH]c1=O | inconclusive: 35.5 µM [inhibitor, partial curve, poor fit]
O=C(CCCN1C(=O)/C(=C/c2ccc3c(c2)OCO3)SC1=S)Nc1ccc(C(=O)O)cc1 | active: 14.1 µM
O=C1C2C3C=CC(C2C(=O)N1c1cccc(O)c1)C1C2C(=O)N(c4cccc(O)c4)C(=O)C2C31 (stereo unspecified) | inconclusive: 70.8 µM [inhibitor, partial curve, poor fit]
Cc1ccc(-n2ncc(-c3n[nH]c(=S)o3)c2N)cc1C | inconclusive: 50.1 µM [inhibitor, partial curve, poor fit]
O=C(O)CCN1C(=O)/C(=C/c2cn(-c3ccccc3)nc2-c2cccs2)SC1=S | inconclusive: 89.1 µM [inhibitor, single point]

As a working copy, part of the list above:
SMILES | Potency
CCCOC(=O)c1ccc(Oc2cn[nH]c2-c2ccc(O)cc2O)cc1 | inconclusive: 70.8 µM [inhibitor, partial curve, poor fit]
O=C(NC1CC1)c1ccc2c(c1)C1C3CCC(C3)C1C(c1ccccc1)N2 (stereo unspecified) | inactive
O=S(=O)(Nc1ccc(O)c(CN2CCCCC2)c1)c1ccccc1 | inactive
COc1cccc(Nc2nc(NCC3CCCO3)c3ccccc3n2)c1 (stereo unspecified) | inconclusive: 50.1 µM [inhibitor, partial curve]
CCN1C(=O)[C@@H]2[C@@H](c3ccc(-c4ccc5c(c4)OCO5)cc3)N3CCCC[C@@]3(C(=O)OC)[C@@H]2C1=O | inactive
CNc1cncc(-c2ccc(O)cc2C)n1 | inconclusive: 28.2 µM [inhibitor, partial curve]
Cc1ccc(OCC(COCc2ccccc2)NC(C)C)cc1 (stereo unspecified) | inconclusive: 6.31 µM [inhibitor, full curve, poor fit]
COc1ccccc1NC(=O)CN(C)S(=O)(=O)c1cccc2cccnc12 | inactive
Cc1cccc(CSc2nnc(-c3cnccn3)n2C)c1 | inconclusive: 15.8 µM [inhibitor, partial curve, poor fit]
Cc1cccc(OCC2(CNC(=O)C3CC3)C[C@@H](O)[C@@H](O)C2)n1 (stereo partly specified) | inconclusive: 10 µM [inhibitor, full curve]
CCOC(=O)C1CCN(Cc2cc(=O)oc3cc(C)c(O)cc23)CC1 | inconclusive: 79.4 µM [inhibitor, single point]
O=C(Cc1ccc2c(c1)OCO2)N1CCNc2cnc(Nc3cccc(C(F)(F)F)c3)nc2C1 | inconclusive: 25.1 µM [inhibitor, partial curve]
